Data: paper PMC11651612
No constants are given. Whether binding was seen depends on the method and setting. In cells and extracts the contact can be indirect. These calls come from enrichment with a bait or labelling near it, and not all partners need be listed.

B1: Sorting nexin-4 (protein, UniProt J9VYM9 1-493)
chain: MDQDGFHSIAWDDAPSSNPPLSGPSPSQSPFEEGFESISPSSAQLPISEQYEGYDNPKAGGAGEVAVALDRRERLGGHEVDGSIWNGKWMDVQVREPAKEHEGSKDMYVSYAVKTETSLPTFRKPLTVVRRRFQDFVFLREHLVKNFPACVVPPIPDKHRLEYIKGDRFSPEFVERRRLDLQRFADRIARHPTLQRSQLVNDFLQSTEWSVAKHHHISHPPPESHTSLIDSLSDTFINAFSRVRKPDARFVEMTEELERFEEGLTGVERVVGRGKSRVDDLAADYQDMAAAYQGLGYLESGITEPLNRFAEKMLDFSTLLKHMNNTTIEPFLSSSHSLLSYSATHRNVIKLRDQKQLDFEELSAYLSAIVSERDRLAALSSGHTAAPVGLGTYLRDQVDKLRGTDDIHTRRERMRKMDGKIRELQDAVTLAHETSNAFSEEVIKEHAYFELEKKQEMKDALQAYADGQVEMLQQAMDDWDRIIPLLQRIRVDV
B2: Uncharacterized protein (CNAG_01796) (protein, UniProt J9VUS1 1-327)
chain: MSTTKQVNQAPAETANALVPEATPSSEEAKKMFKTEEPVSEAVAPNITEPAVKEQFTVADIEAGTAQPRPELVNKVDNAEADNEGTKTEEGAKNTGEVPKPAETKDGKKEVKKSAVKEKTEKTKAEGKNFFAKFFGNKDKFPKKEKKKTPKAEKADPVIAAAPLETKGDNAAPQSVPTTSEPVVDTSAPIEAAEPAVKSPETEAPKGIDASTAVNGPAETAGAPEENKIEDKKDEAKDHAAKPNLKAHRRLSARIGDIFKPKKKEGIPTSSEEISKEEATEPHNEEAPVVASEAPKLEEPVATAPLKLEEEPKATQSSAAAPVAASA
B3: Myosin I binding protein (protein, UniProt J9VN96 1-1419)
chain: MSYPYLARTTLKYKSPHATDLSFAKGDTIRVTGQSPEDEDWLVGETLDGSHAGGFPKDFVEAIDEGTAEPTENESKTAGNTAQQLQPVTQDSSKESEPPNVLSETDPKAGEVRSELDTGSSEAQAPPQAPAPAPISASQSESHDDDAPRPQSMKDRLAFFTAAQNKPAPPPPVKPKPAAGGLTWSQRQKLRQEQEAKEKEGTAAASPVTSTPIAPSATLVPETKPSDNTESKEEQGAAMSAADALTSISKGGSLKERMAALQGVGAFGGAEKKPPPPPPTGKVWKRPAVQEKEPEPQGETEAEKPSSSDTGLAHEPLSSSDEPREVESISKDDDVAKEEETEEEQEKARRAAIAARMAKLGARGPMGMMPPAKPVKKPTRETTTTAEDKSSSTSAAAFPSEAGPGGDTGQIAEAPSIDSKPSATSSKPESVSSPADAPATAPPKSIPIPAMPRRTIGPRRRTHTSSANPSSDDVSTPPAETHPVPLPPAESSVSQDVAAPADAEAEPHDRLETINSEGHPVPPKQMMVYDEEAPLQKTEEQIRQEQEAEERGRGIGGLEGAEAAGIAVDETDEARGELVGRQDEPQASQDDMASVDEQPPTGGNREDVMSFAPGEGLQASESTPAHAAAEDDIPGGKVEMDTVPLHPPADEGLSSEEDDAPPPPPRRGTMTMEGMPLDELEKKHLQDAGEEPPIESPISSPETHEEEAEAEEEEEEEEEEEGAPLPPPRRSLDRPGGSYPLPPVRSSVSAHDAAPDVPPENLTSLATESRPTEARAQASRSPSPPLGATHPRDEDLEEGTSEKLDQEGSEMGSEGGDVGGEEVPRVPPPPSRIRKATSPVELREEEESPTSPVSADRETPHRPDVPVEETREPSGTRAVEETAAVPQGDEEDAARRSGIAARMAKLGGIKFGIPPPHPIKTHSVDTATADPDSVPNRSENLSPVEKEPPPAAAVVSAEPEQPERGEGEVASSEEEETPEQEAARRRATLARLRAGGALGFGMFNQPTQMEPEEVEEKEEEAAGEEGRASALEERGPPPLPLGRPGQGIPLSTNEDVGAKEEQQEQEQVEVQDDEAEDEAQVEDVAPPPPPARPVINTMYGEGDARASSQIVPPPARPAVAPPGSAAVPFSPVDPSGMSRSPTEREEGDDTFGTDAPAPAPAPPLQQRDYIVGEENEEGNPPPPPPPRAGGHRMSVHGEPERGASMSEAAPASQLRMSPEPFSAGGFVAAPSSQTMNPKEQSRDNEDVPVSLGRHGSVRQGTRPGYDQLKEASATYGQGLAKVARGIFAQGKKGFYGDGSPLGFVSVVMDNARVSRPSEDTWGQVIFEQEAGSILRRYDEPRPGDIAAFYDAKLKGKKGLHTYTQHVGSVEEPLVGVVSEFEDRKHKVRVLQVERGVPDEVSYRCEDLKSGKVVVFRAGI
B4: Regucalcin (protein, UniProt J9VZC5 1-314)
chain: MIKKFVVDKPLLELNGTLGEGCVWDTRIQRLYFVDIDQYKLYTYEPSSGKYGYETFDKKVTALASLESGEGLIAAVEDGFAYISFDSLPFPPTSSKQSLIPIPSGASLSSKEKRFNDGAVDPAGRFLAGTLGFEHGSKDGKMYSLQAEKDGSYSAPLILDGITCTNGMGWTEDAKTVYFTDSWIKEIAKFDYDITTGKLSNRRVFSNIDGYGEPDGMCIDSEGGIWTCRWASGKILRLTPDGEIDVEIDFPTAWHITCCIFGGENLDELYVTSAASDYIGDNLPDRKNGGDLFVVKGLGFKGIERDRFKGTIPK
B5: Mucin (protein, UniProt J9VZG4 1-440)
chain: MAANHGVFFHPAQPLSSPTTPLFTPSRKRRAASPPLDSDPLSPWQQSGSQTSFTETPHREKRRRPNLANGFSSLSISPTATQSTPVPDQPRADDDDEGIGPSVYPRNDDVKVEVLPDNTNRLSTHQHPSHRPHTRQWDPYHARPPSSSSSASPTTSTDETYDSDATFTRNLPHIKRYDGIAQQADEIVQPDGSSMFTGPDLGVEDVTGIPSPLRTRRPREEDIEGMEHAGKKRRGNEMEMDIDMSTMDENTEDASVEEKDKLRGRKTVWYEPEKDRIVITSLSDSDSRSSRSPSPETEGRYLSQPGEQGFTISPSLLTHLMNVHRSGDLKGPLQDLLKNNQKSLTLYRPLGIPADRWKESIVKTWEEARNYDDSARFEEIDDAEDFGNNVPSTGNGSEVMDIEGTVPAWQGGAWNTGEAGMGEGGAVSGDGDVDMAMDVE
B6: Tetraspanin Tsp2 (protein, UniProt J9VTI8 1-533)
chain: MPSDNPRRSRLANLASKIAPHSDPQRRSSRSGSLLSPLDPNSSQSGSKENYYGRPSSPTYSDQLSSNNHGQPQEVSYRIDDDLVPPVAPFVPHADSALSSRRSSISFLADKDSFKNRASSLSLNYVPAKFTRLHAPGDYAHRRKQGGGRDAFASNAQRMGQVGTVDDDEGVIFQVSGSGLEKKKPKLRWNRFKWVLFLANSVLFVYGMATLVCAILVWLNIFYQSDVIRVGNRTELIISTVAASMILFTSLLGFAGIFLNNRTFLAVFTLLLWIDFGLLIAPGYITYKQKTFNLEGKINSQWSRDLGTEGRLRIQDALRCCGYYSPFVEATVSPLCYSRSNFPGCKSQYLHLERRVLGIWFTVSFAIVPAHLLIILAALLCSNHVTYRFGKGLMPERYRLDLGSMAVIMDEYAGQIAAQYGPTVAQEAMERSSINLATPTPCRSEYDVSLLSVPNSRRGSSSNLEAMRRSALPGSTRGVSLYDPSNPRASMDRRPESSFGGRSHSASGNGSYSGGHQANESVASFSNDDHRRP
B7: RRM domain-containing protein (protein, UniProt J9VPN4 1-749)
chain: MYNGQPPFPGNGLPPFPPQMAPNGAMPAGFPPFAPPFPPPFPGMRPPSGPGILSPATPGMMPSPAPMSGMQTPGMPFRPPPMGYAPRPAHPGLGSTPHGLPQPPHMSPSTPKPDVKTTKVFVGGIAPGITDETLESLLNACGPLHELKRVIGASGKPQAFGFAMFENPEVVLRCIRCLNGVELPDMTPEGRRDRKPTKKLIVKADEKTQAFLEEFESTLGRSDSDEEADASTRKSVQHIIALLTDPNAQHPDGPSAGNNGGQSPVQVVVPAHLQDLQEGDLPEEQRVAVLGQIAVFRENAAKREREKKLMEEEKERYKAMQSQGGGQRQAPSGYGYGNRGLAKQQQQAERQWGAQSASPAPGKGAGPSRHGPGERDPQAYDKPVSFVKAETTEGKAESGRTDEEEEEFRRRKIQMDKDIALRDAERRVEARERARLDALSREMNYRQTQKDLIARSRARQEELYARYDDDDYIERSERERDRRDRPDRERDVRELFYVDRAQWRARRQKFRQNEYQADLRDRQHEEDERQALERESEEFLKKQMAELAALEQSQRAKGLLTEDAAPIKLAINPSTLPAPPPKEEKKHVIAPRPGVQFEGEDDDEESGRKKKGTFVRLDEEEEGDGLSEAEKRARRNARLLDVKKGVPSDRRSIWKFPVEWAAVGETLVQNKIKPFVHQKIKNFLGELDEDLADFVLEHLRDRKGANDLVDGLEPILAEDAESFVLQLWRQLIFESLAFREGIDTGSMMI
B8: Copper chaperone (protein, UniProt J9VUN4 1-102)
chain: MAAPGTIITSTPGAIPTGPAYQYSVKMTCTGCSGAINRVLGKNITAPNAYHISLPKQLVLVWGPSLPPFETVTEKIAKTGKTINAKEVVEDASTLPALEAAA

The binders below were run against T1, Cdc3-mCherry (C. neoformans) (UniProt J9VUF2) (assay: affinity purification with mass spectrometry).
T1 sequence: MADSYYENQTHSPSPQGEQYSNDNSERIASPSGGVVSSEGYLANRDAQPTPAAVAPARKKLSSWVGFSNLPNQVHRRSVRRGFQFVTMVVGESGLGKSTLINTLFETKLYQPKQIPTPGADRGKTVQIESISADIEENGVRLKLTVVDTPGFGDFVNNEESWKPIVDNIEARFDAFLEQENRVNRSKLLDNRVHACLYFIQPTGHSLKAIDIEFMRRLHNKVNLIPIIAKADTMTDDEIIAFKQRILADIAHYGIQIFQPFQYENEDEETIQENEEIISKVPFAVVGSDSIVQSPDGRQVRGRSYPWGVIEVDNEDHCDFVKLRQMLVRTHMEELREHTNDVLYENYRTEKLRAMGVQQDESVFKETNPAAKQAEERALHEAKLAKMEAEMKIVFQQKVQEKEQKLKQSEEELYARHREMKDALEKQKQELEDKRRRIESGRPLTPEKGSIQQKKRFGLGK
In the case of B1, the binding is reported as “binds”.
B2 was tested, and the binding was “binds”.
In the case of B3, the binding is reported as “binds”.
For B4, the binding was “binds”.
For B5, the binding was “binds”.
In the case of B6, the binding is reported as “binds”.

The binders below were run against T2, Cdc10-mCherry (C. neoformans) (UniProt J9VMT9) (assay: affinity purification with mass spectrometry; mCherry-tagged septin captured from C. neoformans lysate on RFP-Trap agarose, 4 h at 4°C, washed with TBS with 2 M urea pH 7.5; GeLC-MS/MS; untagged H99 as negative control; hits logFC >2 and adjusted p <0.001 (text-named hits <0.05); exponential cultures at ~25°C or shifted to 37°C for 2 h; N = 5).
T2 sequence: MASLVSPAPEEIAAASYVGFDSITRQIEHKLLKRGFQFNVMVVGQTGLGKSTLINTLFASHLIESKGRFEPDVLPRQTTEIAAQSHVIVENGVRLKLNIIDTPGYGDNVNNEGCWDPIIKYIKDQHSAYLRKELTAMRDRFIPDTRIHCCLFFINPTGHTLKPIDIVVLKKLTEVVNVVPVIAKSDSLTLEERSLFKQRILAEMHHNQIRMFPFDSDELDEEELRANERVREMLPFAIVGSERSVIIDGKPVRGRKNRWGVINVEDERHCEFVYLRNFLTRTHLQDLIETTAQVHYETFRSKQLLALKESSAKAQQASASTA
With B7 the binding was “binds”.
For B8, the binding was “binds”.

What follows are binders tested against T1, Cdc3-mCherry (C. neoformans) in the same assay as above.
B7 was tested, and the binding was “binds”.
B8 was tested, and the binding was “binds”.
